The target of one assay is T1, VPS8-FLAG (human, UniProt Q8N3P4 1-1428).
T1 construct: VPS8, human, CORVET-specific subunit; DNA region encoding the full-length protein fused with a FLAG tag; also called CORVET-specific VPS8; source: HEK293, stably transfected (pCMV3), in lysate; not shown: FLAG, C-terminal, kept
T1 sequence (looked up): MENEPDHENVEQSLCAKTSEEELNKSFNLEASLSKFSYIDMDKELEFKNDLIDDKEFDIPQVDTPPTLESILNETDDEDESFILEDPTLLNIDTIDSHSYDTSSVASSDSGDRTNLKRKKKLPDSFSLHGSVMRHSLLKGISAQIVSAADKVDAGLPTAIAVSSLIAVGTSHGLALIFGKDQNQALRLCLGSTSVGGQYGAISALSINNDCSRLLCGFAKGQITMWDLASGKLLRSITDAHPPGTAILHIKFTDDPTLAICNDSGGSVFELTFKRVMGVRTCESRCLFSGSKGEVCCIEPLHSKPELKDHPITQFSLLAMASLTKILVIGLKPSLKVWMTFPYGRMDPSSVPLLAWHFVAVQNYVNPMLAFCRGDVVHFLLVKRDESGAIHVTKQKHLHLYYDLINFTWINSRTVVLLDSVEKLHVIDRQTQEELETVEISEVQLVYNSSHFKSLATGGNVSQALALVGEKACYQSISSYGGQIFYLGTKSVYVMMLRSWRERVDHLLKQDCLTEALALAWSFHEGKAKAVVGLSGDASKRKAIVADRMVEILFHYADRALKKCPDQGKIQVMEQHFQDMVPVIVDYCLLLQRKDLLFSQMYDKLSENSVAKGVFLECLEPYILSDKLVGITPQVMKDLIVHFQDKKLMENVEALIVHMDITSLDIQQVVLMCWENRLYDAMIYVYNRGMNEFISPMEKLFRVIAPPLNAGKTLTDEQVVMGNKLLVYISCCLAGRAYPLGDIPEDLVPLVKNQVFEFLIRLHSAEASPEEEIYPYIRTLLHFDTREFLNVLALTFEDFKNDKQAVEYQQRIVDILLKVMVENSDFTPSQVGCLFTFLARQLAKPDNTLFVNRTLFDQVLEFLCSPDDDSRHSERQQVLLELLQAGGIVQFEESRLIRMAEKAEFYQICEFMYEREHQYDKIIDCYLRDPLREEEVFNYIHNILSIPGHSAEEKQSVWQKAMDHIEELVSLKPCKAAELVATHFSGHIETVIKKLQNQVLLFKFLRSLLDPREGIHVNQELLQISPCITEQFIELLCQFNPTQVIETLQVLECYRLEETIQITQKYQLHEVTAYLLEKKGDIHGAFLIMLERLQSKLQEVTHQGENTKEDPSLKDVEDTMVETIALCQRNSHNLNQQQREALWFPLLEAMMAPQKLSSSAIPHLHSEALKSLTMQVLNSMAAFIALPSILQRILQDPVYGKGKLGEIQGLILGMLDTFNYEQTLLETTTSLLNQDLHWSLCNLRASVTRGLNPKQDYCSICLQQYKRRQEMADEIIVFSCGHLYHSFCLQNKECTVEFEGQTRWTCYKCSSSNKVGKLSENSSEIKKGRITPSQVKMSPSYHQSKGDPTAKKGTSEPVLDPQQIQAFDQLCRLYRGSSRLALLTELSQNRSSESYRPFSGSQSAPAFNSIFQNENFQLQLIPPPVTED
The assay can be described thus: co-IP; anti-FLAG beads on total lysates of HEK293 cells stably transfected with a FLAG-tagged specific subunit, with or without transient overexpression of the counterpart subunit (control: pCMV); endogenous VPS11 and VPS18 detected by western blot, densitometry with ImageJ; lysis buffer 50 mM TRIS-HCl pH 7.5, 150 mM NaCl, 1% Triton X-100, 5 mM EDTA; 1.5 h at 4 °C. (In general: A western blot detects proteins with antibodies after separation by electrophoresis.)

The target of a further assay is T2, Tgfbrap1-FLAG (human, UniProt Q8WUH2 1-860).
T2 construct: Tgfbrap1, human, CORVET-specific subunit; DNA region encoding the full-length protein fused with a FLAG tag; also called CORVET-specific Tgfbrap1; not shown: FLAG, C-terminal, kept
T2 sequence (looked up): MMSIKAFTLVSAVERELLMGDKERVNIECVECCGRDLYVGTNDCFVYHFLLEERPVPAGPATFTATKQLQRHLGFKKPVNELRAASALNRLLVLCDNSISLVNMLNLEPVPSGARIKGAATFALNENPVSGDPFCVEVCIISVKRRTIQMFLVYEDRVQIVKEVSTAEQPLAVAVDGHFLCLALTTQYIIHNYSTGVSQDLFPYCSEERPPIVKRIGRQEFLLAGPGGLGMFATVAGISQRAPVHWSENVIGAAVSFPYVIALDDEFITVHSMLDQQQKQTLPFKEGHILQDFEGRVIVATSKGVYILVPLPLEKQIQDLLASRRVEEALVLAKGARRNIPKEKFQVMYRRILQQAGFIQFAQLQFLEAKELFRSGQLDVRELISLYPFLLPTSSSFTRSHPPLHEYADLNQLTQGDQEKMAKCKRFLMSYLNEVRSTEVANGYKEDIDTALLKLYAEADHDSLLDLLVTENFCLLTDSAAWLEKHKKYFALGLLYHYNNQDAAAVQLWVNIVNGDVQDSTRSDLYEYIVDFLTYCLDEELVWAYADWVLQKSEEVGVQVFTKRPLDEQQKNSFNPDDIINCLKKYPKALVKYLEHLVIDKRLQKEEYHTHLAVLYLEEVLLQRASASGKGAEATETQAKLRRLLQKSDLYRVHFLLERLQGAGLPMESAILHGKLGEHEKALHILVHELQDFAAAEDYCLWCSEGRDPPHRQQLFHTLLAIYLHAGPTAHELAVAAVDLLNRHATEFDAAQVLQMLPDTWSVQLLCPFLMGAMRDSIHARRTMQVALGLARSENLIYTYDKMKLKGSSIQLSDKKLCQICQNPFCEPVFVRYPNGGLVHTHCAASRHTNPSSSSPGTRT
The assay is described as above.

No constants are given. Whether binding was seen depends on the method and setting. Binding seen in cells or lysates may run through a third protein. Some entries that bind do so weakly or less than the wild type. Tags and fused reporters may be left off the sequences shown.

B1: VPS18 (natural protein, human (endogenous in HEK293), UniProt Q9P253 1-973, looked up)
chain: MASILDEYENSLSRSAVLQPGCPSVGIPHSGYVNAQLEKEVPIFTKQRIDFTPSERITSLVVSSNQLCMSLGKDTLLRIDLGKANEPNHVELGRKDDAKVHKMFLDHTGSHLLIALSSTEVLYVNRNGQKVRPLARWKGQLVESVGWNKALGTESSTGPILVGTAQGHIFEAELSASEGGLFGPAPDLYFRPLYVLNEEGGPAPVCSLEAERGPDGRSFVIATTRQRLFQFIGRAAEGAEAQGFSGLFAAYTDHPPPFREFPSNLGYSELAFYTPKLRSAPRAFAWMMGDGVLYGALDCGRPDSLLSEERVWEYPEGVGPGASPPLAIVLTQFHFLLLLADRVEAVCTLTGQVVLRDHFLEKFGPLKHMVKDSSTGQLWAYTERAVFRYHVQREARDVWRTYLDMNRFDLAKEYCRERPDCLDTVLAREADFCFRQRRYLESARCYALTQSYFEEIALKFLEARQEEALAEFLQRKLASLKPAERTQATLLTTWLTELYLSRLGALQGDPEALTLYRETKECFRTFLSSPRHKEWLFASRASIHELLASHGDTEHMVYFAVIMQDYERVVAYHCQHEAYEEALAVLARHRDPQLFYKFSPILIRHIPRQLVDAWIEMGSRLDARQLIPALVNYSQGGEVQQVSQAIRYMEFCVNVLGETEQAIHNYLLSLYARGRPDSLLAYLEQAGASPHRVHYDLKYALRLCAEHGHHRACVHVYKVLELYEEAVDLALQVDVDLAKQCADLPEEDEELRKKLWLKIARHVVQEEEDVQTAMACLASCPLLKIEDVLPFFPDFVTIDHFKEAICSSLKAYNHHIQELQREMEEATASAQRIRRDLQELRGRYGTVEPQDKCATCDFPLLNRPFYLFLCGHMFHADCLLQAVRPGLPAYKQARLEELQRKLGAAPPPAKGSARAKEAEGGAATAGPSREQLKADLDELVAAECVYCGELMIRSIDRPFIDPQRYEEEQLSWL
notes: VPS18, shared class C core subunit of HOPS and CORVET, detected by anti-VPS18 western blot in anti-FLAG precipitates; also called core subunit VPS18; source: endogenous, HEK293 lysate
Turning to B1, the binding entry with VPS8-FLAG and with Tgfbrap1-FLAG was “binds” each time.

B2: VPS11 (natural protein, human (endogenous in HEK293), UniProt Q9H270 1-941, looked up)
chain: MAAYLQWRRFVFFDKELVKEPLSNDGAAPGATPASGSAASKFLCLPPGITVCDSGRGSLVFGDMEGQIWFLPRSLQLTGFQAYKLRVTHLYQLKQHNILASVGEDEEGINPLVKIWNLEKRDGGNPLCTRIFPAIPGTEPTVVSCLTVHENLNFMAIGFTDGSVTLNKGDITRDRHSKTQILHKGNYPVTGLAFRQAGKTTHLFVVTTENVQSYIVSGKDYPRVELDTHGCGLRCSALSDPSQDLQFIVAGDECVYLYQPDERGPCFAFEGHKLIAHWFRGYLIIVSRDRKVSPKSEFTSRDSQSSDKQILNIYDLCNKFIAYSTVFEDVVDVLAEWGSLYVLTRDGRVHALQEKDTQTKLEMLFKKNLFEMAINLAKSQHLDSDGLAQIFMQYGDHLYSKGNHDGAVQQYIRTIGKLEPSYVIRKFLDAQRIHNLTAYLQTLHRQSLANADHTTLLLNCYTKLKDSSKLEEFIKKKSESEVHFDVETAIKVLRQAGYYSHALYLAENHAHHEWYLKIQLEDIKNYQEALRYIGKLPFEQAESNMKRYGKILMHHIPEQTTQLLKGLCTDYRPSLEGRSDREAPGCRANSEEFIPIFANNPRELKAFLEHMSEVQPDSPQGIYDTLLELRLQNWAHEKDPQVKEKLHAEAISLLKSGRFCDVFDKALVLCQMHDFQDGVLYLYEQGKLFQQIMHYHMQHEQYRQVISVCERHGEQDPSLWEQALSYFARKEEDCKEYVAAVLKHIENKNLMPPLLVVQTLAHNSTATLSVIRDYLVQKLQKQSQQIAQDELRVRRYREETTRIRQEIQELKASPKIFQKTKCSICNSALELPSVHFLCGHSFHQHCFESYSESDADCPTCLPENRKVMDMIRAQEQKRDLHDQFQHQLKCSNDSFSVIADYFGRGVFNKLTLLTDPPTARLTSSLEAGLQRDLLMHSRRGT
notes: VPS11, shared class C core subunit of HOPS and CORVET, detected by anti-VPS11 western blot in anti-FLAG precipitates; also called core subunit VPS11; source: endogenous, HEK293 lysate
Turning to B2, the binding entry in the assay with VPS8-FLAG and with Tgfbrap1-FLAG was “binds” in each case.

(Values after PMC11066007, “CORVET-specific subunit levels determine the balance between HOPS/CORVET endosomal tethering complexes” (Scientific Reports, 2024).)
